# These are yes or no findings as the source states them, for the method shown. Binding seen in cells or lysates may run through a third protein. A result given as binding can be weak or reduced; the word gives no strength. Tags and fused reporters may be left off the sequences shown.
# Molecular target: T1, YFP-GAI (Arabidopsis thaliana) (UniProt Q9LQT8)
# T1 sequence: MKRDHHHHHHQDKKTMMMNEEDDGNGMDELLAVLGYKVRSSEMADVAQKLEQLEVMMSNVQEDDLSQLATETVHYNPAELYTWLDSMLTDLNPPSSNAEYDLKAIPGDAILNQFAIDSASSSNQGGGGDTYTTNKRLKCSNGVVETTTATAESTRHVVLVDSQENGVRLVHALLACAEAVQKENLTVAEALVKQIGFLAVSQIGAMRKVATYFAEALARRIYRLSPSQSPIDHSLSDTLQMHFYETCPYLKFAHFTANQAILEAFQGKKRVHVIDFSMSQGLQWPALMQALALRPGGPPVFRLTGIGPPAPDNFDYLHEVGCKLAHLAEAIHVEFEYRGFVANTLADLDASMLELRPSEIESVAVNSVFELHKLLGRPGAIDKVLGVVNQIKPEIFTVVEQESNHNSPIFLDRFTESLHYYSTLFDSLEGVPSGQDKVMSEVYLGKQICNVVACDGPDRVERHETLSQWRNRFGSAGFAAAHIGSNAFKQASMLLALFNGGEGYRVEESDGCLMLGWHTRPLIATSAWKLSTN
# Test: co-IP; agroinfiltrated N. benthamiana leaves expressing HA-ARR1 or HA-ARR1ΔDDK and YFP-GAI; precipitated with anti-GFP, HA fusions detected
substance,measurement,value
HA-ARR1ΔDDK (Arabidopsis thaliana) (domain or fragment),binding,binds

# From publication PMC4489807
